PubChem BioAssay AID266 (DTP/NCI, 2004)
The list does not hold the whole screen: it gathers some chemical classes. Not every dose and run of a compound is shown. T/C: endpoint of the treated group in % of that of the vehicle group. Schedule codes are those of the source, taken here to give the interval after Q, in days (D) or hours (H), and the number of doses after X.

Tested on: Nude mice, LX-1 lung xenograft intrarenal, tumor weight T/C
Assay: NCI In Vivo Anticancer Drug Screen. Data for tumor model Human Lung LX-1 Xenograft (intrarenal inoculation) in NU/NU BALB/C (nude) mice
Conditions: T/C endpoint: mean tumor weight change, schedule: Q04DX003 (sc), vehicle: suspension in saline, evaluated on day 11, higher T/C = larger tumour
Method: The antitumor activity of compounds was measured in mice bearing transplantable tumors. Survival or tumor size were measured and the results are expressed as the measurement made in the treated group (T) divided by the measurement made in the vehicle treated control group (C). The tumor model used in this assay is Human Lung LX-1 Xenograft (intrarenal inoculation) in NU/NU BALB/C (nude) mice

## Cc1ccc(Sc2ccc([N+](=O)[O-])cc2[N+](=O)[O-])c([N+](=O)[O-])c1
dose: 300.0 mg/kg/injection
  T/C: 124 % of control
dose: 600.0 mg/kg/injection
  T/C: 128 % of control
dose: 1200.0 mg/kg/injection
  T/C: 121 % of control
dose: 2400.0 mg/kg/injection
  T/C: 123 % of control
